Results are given in words; binding and its absence hold for the method and conditions named. In cells and extracts the contact can be indirect. A yes stands for co-enrichment or nearness to the bait. Other partners may have been found.
Target: 3xFlag-tagged DTL (Denticleless E3 ubiquitin protein ligase homolog) (human) (UniProt Q9NZJ0)
Test: affinity purification with mass spectrometry; lysate of Huh-7 cells stably expressing 3xFlag-DTL, IP with anti-FLAG antibody, elution, tryptic digestion, LC-MS/MS; weak lysis buffer, antibody overnight at 4 °C, Protein A + G beads 4 h at 4 °C

The chains behind the UniProt entries cited, without tags or fusion partners.
UniProt Q9NZJ0: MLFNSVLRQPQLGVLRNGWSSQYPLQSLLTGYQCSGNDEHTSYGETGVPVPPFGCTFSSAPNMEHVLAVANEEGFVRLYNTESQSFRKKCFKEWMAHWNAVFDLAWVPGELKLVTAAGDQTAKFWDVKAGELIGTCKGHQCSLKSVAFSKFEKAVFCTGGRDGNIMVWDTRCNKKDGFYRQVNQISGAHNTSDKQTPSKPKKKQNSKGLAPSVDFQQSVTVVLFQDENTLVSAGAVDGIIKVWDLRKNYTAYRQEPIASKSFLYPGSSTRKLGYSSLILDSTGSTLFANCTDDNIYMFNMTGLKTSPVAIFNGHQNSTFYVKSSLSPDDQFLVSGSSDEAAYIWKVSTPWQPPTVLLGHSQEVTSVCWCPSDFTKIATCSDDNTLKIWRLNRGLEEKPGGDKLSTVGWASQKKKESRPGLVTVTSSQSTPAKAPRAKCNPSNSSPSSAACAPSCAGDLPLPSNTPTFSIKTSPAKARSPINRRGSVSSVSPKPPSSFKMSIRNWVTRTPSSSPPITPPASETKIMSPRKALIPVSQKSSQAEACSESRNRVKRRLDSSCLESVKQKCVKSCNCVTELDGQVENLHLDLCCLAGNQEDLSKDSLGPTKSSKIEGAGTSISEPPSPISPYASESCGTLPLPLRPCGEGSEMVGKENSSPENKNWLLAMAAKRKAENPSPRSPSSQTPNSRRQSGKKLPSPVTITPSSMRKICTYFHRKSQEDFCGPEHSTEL
UniProt Q9NWH9: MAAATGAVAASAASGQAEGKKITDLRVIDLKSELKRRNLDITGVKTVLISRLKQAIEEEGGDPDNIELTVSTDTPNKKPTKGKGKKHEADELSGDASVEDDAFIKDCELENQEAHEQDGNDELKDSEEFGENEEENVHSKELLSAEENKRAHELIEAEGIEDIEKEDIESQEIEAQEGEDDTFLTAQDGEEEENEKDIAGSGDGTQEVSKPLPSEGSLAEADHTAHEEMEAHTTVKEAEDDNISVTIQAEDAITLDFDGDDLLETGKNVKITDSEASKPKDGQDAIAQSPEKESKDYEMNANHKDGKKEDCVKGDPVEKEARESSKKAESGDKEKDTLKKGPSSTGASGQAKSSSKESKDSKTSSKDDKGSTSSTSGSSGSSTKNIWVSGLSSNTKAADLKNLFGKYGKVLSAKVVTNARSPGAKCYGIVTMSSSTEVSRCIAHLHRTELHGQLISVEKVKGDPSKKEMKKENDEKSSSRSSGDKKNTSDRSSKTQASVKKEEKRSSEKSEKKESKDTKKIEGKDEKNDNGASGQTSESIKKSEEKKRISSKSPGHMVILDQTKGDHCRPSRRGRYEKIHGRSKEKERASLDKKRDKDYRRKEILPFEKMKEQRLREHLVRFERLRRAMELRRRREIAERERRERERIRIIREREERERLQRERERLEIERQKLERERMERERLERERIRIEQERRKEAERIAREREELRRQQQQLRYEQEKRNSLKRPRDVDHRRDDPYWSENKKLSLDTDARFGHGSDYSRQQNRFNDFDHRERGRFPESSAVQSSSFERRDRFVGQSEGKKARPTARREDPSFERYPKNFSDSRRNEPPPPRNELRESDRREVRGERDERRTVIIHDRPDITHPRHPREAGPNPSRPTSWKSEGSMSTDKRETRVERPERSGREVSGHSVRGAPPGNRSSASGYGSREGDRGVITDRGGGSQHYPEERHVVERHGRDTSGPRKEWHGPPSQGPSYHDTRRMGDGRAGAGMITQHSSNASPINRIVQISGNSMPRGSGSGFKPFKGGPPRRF

Question: Which binding does the source give for “SAFB-like transcription modulator (SLTM), endogenous (from UniProt Q9NWH9 1-1034)” here?
Answer: binds
